Results are given in words; binding and its absence hold for the method and conditions named. Binding seen in cells or lysates may run through a third protein. A yes stands for co-enrichment or nearness to the bait. Other partners may have been found. Tags and fused reporters may be left off the sequences shown.
T1: N-terminal Myc-tagged Tsa1 with a mutation in its resolving cysteine residue (Tsa1-C171S) (S. cerevisiae) (UniProt P34760)
T1 sequence: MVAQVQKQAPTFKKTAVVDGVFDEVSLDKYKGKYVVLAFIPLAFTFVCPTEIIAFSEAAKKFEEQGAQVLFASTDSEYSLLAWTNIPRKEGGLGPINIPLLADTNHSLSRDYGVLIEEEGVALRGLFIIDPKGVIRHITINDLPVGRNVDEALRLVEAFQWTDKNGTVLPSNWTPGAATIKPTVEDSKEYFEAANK

Protein sequences, listed by entry. Tags and fused reporters are not part of them.
UniProt Q02821: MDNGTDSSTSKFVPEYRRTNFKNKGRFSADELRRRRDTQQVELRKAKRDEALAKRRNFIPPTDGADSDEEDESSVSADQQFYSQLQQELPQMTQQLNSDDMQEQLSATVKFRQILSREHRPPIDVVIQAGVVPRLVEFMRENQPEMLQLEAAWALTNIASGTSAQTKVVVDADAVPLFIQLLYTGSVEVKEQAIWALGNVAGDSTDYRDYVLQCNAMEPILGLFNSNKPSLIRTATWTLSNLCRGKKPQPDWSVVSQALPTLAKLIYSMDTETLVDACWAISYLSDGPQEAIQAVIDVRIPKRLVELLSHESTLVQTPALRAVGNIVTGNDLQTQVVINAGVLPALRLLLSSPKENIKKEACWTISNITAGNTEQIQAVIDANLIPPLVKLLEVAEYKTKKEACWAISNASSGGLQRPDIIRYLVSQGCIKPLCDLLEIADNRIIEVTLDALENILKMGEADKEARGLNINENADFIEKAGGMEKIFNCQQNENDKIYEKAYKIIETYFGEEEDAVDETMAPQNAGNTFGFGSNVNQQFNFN
UniProt P22336: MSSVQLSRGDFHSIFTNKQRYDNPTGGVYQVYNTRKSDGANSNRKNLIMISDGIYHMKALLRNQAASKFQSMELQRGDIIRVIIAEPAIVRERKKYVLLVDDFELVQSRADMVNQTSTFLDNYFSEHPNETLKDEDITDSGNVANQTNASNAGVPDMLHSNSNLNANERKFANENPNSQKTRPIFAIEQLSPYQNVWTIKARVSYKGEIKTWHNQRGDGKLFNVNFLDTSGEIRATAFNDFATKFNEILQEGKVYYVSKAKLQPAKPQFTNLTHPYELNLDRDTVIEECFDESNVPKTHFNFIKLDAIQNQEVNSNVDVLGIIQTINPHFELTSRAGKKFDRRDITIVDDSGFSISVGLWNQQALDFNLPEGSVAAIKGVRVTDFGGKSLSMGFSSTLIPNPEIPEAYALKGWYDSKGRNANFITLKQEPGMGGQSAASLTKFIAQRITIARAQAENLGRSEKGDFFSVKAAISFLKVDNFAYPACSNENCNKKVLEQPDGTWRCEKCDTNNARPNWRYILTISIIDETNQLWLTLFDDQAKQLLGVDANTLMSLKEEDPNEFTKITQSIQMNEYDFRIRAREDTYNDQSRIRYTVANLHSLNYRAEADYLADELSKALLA
UniProt P40457: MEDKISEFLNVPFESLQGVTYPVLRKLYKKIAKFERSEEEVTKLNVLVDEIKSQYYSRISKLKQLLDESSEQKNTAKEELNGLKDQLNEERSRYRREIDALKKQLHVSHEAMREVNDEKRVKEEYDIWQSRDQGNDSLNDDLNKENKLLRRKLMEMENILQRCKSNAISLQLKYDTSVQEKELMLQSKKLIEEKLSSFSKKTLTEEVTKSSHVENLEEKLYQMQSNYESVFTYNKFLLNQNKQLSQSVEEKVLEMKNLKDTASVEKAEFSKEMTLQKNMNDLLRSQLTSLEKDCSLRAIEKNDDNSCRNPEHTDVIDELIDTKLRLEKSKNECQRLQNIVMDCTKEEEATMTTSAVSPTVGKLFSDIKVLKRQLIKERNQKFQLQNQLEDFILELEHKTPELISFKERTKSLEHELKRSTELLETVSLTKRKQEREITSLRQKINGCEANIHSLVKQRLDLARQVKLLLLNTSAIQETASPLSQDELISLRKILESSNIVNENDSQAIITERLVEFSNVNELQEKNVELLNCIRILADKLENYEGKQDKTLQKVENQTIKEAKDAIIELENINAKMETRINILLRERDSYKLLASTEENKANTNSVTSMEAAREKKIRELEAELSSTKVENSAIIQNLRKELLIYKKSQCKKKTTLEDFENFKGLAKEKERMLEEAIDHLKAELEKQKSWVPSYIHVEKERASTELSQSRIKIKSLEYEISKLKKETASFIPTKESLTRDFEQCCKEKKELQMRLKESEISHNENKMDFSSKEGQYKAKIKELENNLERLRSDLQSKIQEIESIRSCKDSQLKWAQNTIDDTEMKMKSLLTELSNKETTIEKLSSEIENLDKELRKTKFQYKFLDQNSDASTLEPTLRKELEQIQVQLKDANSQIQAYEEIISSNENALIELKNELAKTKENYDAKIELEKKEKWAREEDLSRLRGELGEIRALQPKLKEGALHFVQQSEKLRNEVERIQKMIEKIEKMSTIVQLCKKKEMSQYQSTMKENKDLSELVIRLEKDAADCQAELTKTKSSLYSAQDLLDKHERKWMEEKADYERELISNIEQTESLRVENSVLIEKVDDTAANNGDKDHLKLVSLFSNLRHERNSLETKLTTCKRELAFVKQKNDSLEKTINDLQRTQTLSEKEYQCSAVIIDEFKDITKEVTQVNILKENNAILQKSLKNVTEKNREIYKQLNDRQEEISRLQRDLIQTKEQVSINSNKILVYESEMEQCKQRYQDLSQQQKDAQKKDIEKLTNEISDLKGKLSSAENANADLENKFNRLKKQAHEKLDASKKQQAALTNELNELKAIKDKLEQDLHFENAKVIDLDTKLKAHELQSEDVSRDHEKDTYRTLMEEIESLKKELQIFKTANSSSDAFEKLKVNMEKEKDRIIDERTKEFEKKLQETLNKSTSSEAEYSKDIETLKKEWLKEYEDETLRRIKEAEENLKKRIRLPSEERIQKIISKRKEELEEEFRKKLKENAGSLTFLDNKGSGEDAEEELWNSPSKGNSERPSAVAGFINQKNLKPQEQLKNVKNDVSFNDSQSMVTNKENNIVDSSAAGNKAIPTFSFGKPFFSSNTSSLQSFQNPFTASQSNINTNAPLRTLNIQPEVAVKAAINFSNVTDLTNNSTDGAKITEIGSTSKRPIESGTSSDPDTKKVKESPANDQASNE
UniProt P35169: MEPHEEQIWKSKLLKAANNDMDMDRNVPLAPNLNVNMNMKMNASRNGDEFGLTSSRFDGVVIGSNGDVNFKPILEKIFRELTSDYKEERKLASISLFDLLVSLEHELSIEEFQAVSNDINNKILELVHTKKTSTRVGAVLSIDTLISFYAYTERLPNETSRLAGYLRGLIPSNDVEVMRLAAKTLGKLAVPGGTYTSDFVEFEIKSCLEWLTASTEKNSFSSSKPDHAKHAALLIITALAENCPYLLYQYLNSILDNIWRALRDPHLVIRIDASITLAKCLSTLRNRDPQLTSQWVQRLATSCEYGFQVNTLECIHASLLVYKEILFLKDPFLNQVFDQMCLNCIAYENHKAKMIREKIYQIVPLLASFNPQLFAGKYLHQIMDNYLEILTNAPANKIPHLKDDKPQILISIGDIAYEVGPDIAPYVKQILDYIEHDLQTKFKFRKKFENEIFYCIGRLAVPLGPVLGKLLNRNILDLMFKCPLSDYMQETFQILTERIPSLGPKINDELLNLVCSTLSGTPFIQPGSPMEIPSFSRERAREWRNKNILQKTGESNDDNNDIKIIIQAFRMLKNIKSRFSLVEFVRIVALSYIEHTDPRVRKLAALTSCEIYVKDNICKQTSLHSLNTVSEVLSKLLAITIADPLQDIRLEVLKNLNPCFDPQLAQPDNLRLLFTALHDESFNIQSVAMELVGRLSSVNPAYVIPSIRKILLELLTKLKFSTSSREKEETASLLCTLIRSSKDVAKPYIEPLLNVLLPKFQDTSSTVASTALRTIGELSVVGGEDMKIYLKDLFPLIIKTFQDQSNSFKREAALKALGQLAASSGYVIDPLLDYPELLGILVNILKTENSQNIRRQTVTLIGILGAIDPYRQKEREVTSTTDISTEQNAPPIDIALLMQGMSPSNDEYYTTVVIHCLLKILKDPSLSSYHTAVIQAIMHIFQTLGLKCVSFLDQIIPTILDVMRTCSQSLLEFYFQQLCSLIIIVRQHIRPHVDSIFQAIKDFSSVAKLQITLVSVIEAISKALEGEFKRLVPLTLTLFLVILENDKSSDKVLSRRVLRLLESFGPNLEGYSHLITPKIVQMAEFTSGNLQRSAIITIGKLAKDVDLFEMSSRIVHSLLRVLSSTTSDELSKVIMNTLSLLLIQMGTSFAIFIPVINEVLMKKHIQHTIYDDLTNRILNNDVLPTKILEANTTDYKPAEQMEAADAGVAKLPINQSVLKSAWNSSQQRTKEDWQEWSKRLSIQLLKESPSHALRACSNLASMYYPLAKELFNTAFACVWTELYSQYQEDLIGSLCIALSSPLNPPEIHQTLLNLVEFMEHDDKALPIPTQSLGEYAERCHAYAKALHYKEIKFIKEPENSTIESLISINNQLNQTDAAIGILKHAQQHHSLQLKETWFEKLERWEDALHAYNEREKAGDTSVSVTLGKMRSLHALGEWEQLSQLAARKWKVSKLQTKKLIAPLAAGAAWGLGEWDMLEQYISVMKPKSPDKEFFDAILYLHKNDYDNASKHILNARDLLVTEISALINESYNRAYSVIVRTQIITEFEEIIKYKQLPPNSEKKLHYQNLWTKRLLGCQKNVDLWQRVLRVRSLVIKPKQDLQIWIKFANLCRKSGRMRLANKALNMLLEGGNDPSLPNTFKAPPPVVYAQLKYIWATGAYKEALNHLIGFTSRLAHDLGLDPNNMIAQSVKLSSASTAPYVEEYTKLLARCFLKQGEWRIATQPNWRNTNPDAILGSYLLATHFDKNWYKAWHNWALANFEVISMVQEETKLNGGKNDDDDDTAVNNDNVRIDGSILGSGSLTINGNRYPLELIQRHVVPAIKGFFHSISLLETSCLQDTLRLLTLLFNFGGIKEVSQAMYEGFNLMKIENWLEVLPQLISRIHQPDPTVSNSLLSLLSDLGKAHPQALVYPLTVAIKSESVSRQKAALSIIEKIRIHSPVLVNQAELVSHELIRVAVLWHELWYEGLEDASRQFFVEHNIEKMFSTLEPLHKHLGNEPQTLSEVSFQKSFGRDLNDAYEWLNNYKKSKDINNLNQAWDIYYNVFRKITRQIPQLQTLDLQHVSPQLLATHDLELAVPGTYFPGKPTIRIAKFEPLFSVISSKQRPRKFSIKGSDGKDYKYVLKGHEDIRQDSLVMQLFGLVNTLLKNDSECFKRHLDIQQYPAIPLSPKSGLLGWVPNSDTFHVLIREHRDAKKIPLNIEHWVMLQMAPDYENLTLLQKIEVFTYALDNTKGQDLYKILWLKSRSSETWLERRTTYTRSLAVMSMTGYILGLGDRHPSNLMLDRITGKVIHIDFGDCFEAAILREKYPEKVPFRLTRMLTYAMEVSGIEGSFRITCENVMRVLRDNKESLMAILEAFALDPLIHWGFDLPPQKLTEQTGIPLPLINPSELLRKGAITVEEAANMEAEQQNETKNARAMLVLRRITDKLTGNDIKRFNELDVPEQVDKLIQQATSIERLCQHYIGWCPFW


molecular target: T1, N-terminal Myc-tagged Tsa1 with a mutation in its resolving cysteine residue (Tsa1-C171S) (S. cerevisiae); assay: affinity purification with mass spectrometry; Myc-Tsa1-C171S precipitated with anti-myc affinity beads from lysates of a tsa1 mutant, cells untreated or treated with hydrogen peroxide or AZC for 2 h; 4 h at 4 °C; washes in IPP50 buffer (10 mM Tris pH 8.0, 50 mM NaCl); vector-only control; hits in two of three repeats

binding | Molecule
binds | Srp1 (from UniProt Q02821 1-542)
binds | Rfa1 (from UniProt P22336 1-621)
binds | Mlp2 (from UniProt P40457 1-1679)
binds | Tor1 (from UniProt P35169 1-2470)
binds | Lys21 (S. cerevisiae (endogenous in W303))
binds | Dak1 (protein, UniProt P54838 1-584) MSAKSFEVTDPVNSSLKGFALANPSITLVPEEKILFRKTDSDKIALISGGGSGHEPTHAGFIGKGMLSGAVVGEIFASPSTKQILNAIRLVNENASGVLLIVKNYTGDVLHFGLSAERARALGINCRVAVIGDDVAVGREKGGMVGRRALAGTVLVHKIVGAFAEEYSSKYGLDGTAKVAKIINDNLVTIGSSLDHCKVPGRKFESELNEKQMELGMGIHNEPGVKVLDPIPSTEDLISKYMLPKLLDPNDKDRAFVKFDEDDEVVLLVNNLGGVSNFVISSITSKTTDFLKENYNITPVQTIAGTLMTSFNGNGFSITLLNATKATKALQSDFEEIKSVLDLLNAFTNAPGWPIADFEKTSAPSVNDDLLHNEVTAKAVGTYDFDKFAEWMKSGAEQVIKSEPHITELDNQVGDGDCGYTLVAGVKGITENLDKLSKDSLSQAVAQISDFIEGSMGGTSGGLYSILLSGFSHGLIQVCKSKDEPVTKEIVAKSLGIALDTLYKYTKARKGSSTMIDALEPFVKEFTASKDFNKAVKAAEEGAKSTATFEAKFGRASYVGDSSQVEDPGAVGLCEFLKGVQSAL
binds | YMR102C (protein, UniProt Q03177 1-834) MTNMAEDKTSISKVHSEFSNSSNTTGSEEESRSHQESFDGESSSGESKSKSKLNLEYSADIEPLKFRMTKTNNTNDKLKYSNNGNATDSFMRLKEHLQRGNTLNSNLRVNEFYPFNSIDTEQFENYLREPKYIKMLKRRKNLKQFRRLFLAQELMAYEGETVTSTSKSSEPTSKAIWSTKFSRDGKFMATGSKDGKIRIWKVIGSPVERAELDSSAESNKEARAKSMRIKQQVSSLNNPKEKQFLDSATEKYEEKEKLLNLYAPVFHPTPLRLYKEHVQDVLDINWSKNNFILSASMDKTVKLWHPDRKNSLKTFIHPDFVTCVEFHPTDDRFFISGCLDHKCRLWSILDDEVSFEYDCQDLITSVTLSPEEGKYTIIGTFNGYVHILMTRGLTPVSSFHVADRQTQEQNAHVMVTETDSKIRHGPRVTGLQAFRSQLDNSFRLVVTSNDSRIRIFDLEQRKLLEVLKGFHSGSSQHKAQLSIWHGQPIVVNSSDDHWVYGWRLKSSDRENDQDEPKRKPKGLARSGSLRSIFSKSMSRSSSQNNEEKPHHHLKLTNLLPLPHHSNDHYIKNTDYISFHAHNAPVTCVSIAPPETSKTLSLSNDVICELSLEFFQTSDSFDVLSRSNDDGIMSDVESSLGYNSKPGSISNASATSAIPDVVDAIGTILISTDNVGTIRVFRADMPSVIRKRVLLKLEEYNREVRRRFNSSDSLHSLSRSFNSRAKSNLAGQPAAAYTNTGKGYATGRGYSNICPKSSTSLKTLGSNAQPRTPRESMSSIFSNAHGPTTPTSAMNLPIRCNVCNGSRFEAFSGANDQQDRNYYCVDCGTVVNNFR
binds | Zta1 (protein, UniProt P38230 1-334) MKCTIPEQQKVILIDEIGGYDVIKYEDYPVPSISEEELLIKNKYTGVNYIESYFRKGIYPCEKPYVLGREASGTVVAKGKGVTNFEVGDQVAYISNSTFAQYSKISSQGPVMKLPKGTSDEELKLYAAGLLQVLTALSFTNEAYHVKKGDYVLLFAAAGGVGLILNQLLKMKGAHTIAVASTDEKLKIAKEYGAEYLINASKEDILRQVLKFTNGKGVDASFDSVGKDTFEISLAALKRKGVFVSFGNASGLIPPFSITRLSPKNITLVRPQLYGYIADPEEWKYYSDEFFGLVNSKKLNIKIYKTYPLRDYRTAAADIESRKTVGKLVLEIPQ
binds | Bud2 (protein, UniProt P33314 1-1104) MSSNNEPAQSRTSYFKLNEFLSNVKHYKNTFKGEIQWCNNLSLNDWKTHYLQITSTGALTHSIDELTADSTNIQPIIKHLQQCRIEIIKDKHSSFKDINANCNFIIQVNTSGKDNKVYLRVKSWSDFKKLLTCLIWWSSMKTNGIFNKFQVSRPLEFKSKKMAKPESLLVYKLNVFGPIVKNIVLPPATNILESPDIINNDDNSVGWFSAMGVLKSNGMLDLLLQSDGSLIYSLNISQLLRSEIRILDSSVLQSENSLFLGELPLLRSQLGLEKFRIENIASAATNSSDISQEIIVEFPLRIDLEDCFIALQSFARSEYLSITGSDKSNDMKISNSFKISILEANFQSINLNDKNNTPWSIFTDITAWGHTWARTSMVSNSSNPFWREEFQFNELLRLTNSYLEIKQLFHDLNNKKRLRLIGKIKITQEIINDTRYNKETRLPIMDVDNKNFQIGTICIKISSNLNFILPSTNFVKLEKLLMNANLSMVSNLIYKSSSSMENDNKLTQTSIIFLDIFQSLSRIEEWFHVLIDKELAKIDGTVSRINQKNLDSKHVFNSLFRGNSILTKSIEQYFFRVGNEYLSKALSAILKEIIESNKSCELDPARVKEKDEVKKRKIIADNYKRLYSWVTKIWKRLYATSNDLPIEIRNVLKIFRQKLEIICIDDTLQIILNGISGLLFLRFFCPVILNPKLFKYVSQNLNETARRNLTLISKVLLNLSTLTQFANKEPWLMKMNNFIDKRHNDLLDYIDKMTQKKLDFNSKILNLSSTISRPKLAIEQTMLDDLPQIPYLLDKNLRETEFVNLIVNFSQEDMTKMEKYNHMDNGGKGELIEEEGLLSGSSLNLSVDKKDLDSPIEVKPEIGELEFEKITENNTEIFGDDLMNLLKSDDVGSRSRDLDNGANSGIKFNSIIPKAEEEKHAMKELEQESCLLYNRINHIRKRLSGYECASSTLFEDKKYSISLSHKIFYEEIKEGKEIVLKLLNKPTNENSSARLQKFFTKGVSSKSNNTVGDSYCKFLTIDVSDENPKSSNKTSVHGTSSENGAKDDYLTLPNSQGKGNLGNRFSPTKLSRIMRKPPNADVPKEQNSRKLTRWFKKKKETGGS
binds | Sub2 (protein, UniProt Q07478 1-446) MSHEGEEDLLEYSDNEQEIQIDASKAAEAGETGAATSATEGDNNNNTAAGDKKGSYVGIHSTGFKDFLLKPELSRAIIDCGFEHPSEVQQHTIPQSIHGTDVLCQAKSGLGKTAVFVLSTLQQLDPVPGEVAVVVICNARELAYQIRNEYLRFSKYMPDVKTAVFYGGTPISKDAELLKNKDTAPHIVVATPGRLKALVREKYIDLSHVKNFVIDECDKVLEELDMRRDVQEIFRATPRDKQVMMFSATLSQEIRPICRRFLQNPLEIFVDDEAKLTLHGLQQYYIKLEEREKNRKLAQLLDDLEFNQVIIFVKSTTRANELTKLLNASNFPAITVHGHMKQEERIARYKAFKDFEKRICVSTDVFGRGIDIERINLAINYDLTNEADQYLHRVGRAGRFGTKGLAISFVSSKEDEEVLAKIQERFDVKIAEFPEEGIDPSTYLNN
binds | Ede1 (protein, UniProt P34216 1-1381) MASITFRTPLSSQEQAFYNQKFHQLDTEDLGVVTGEAVRPLFASSGLPGQLLSQVWATVDIDNKGFLNLNEFSAALRMIAQLQNAPNQPISAALYESTPTQLASFSINQNPAPMQSGSATGNTNNTDIPALSSNDIAKFSQLFDRTAKGAQTVAGDKAKDIFLKARLPNQTLGEIWALCDRDASGVLDKSEFIMAMYLIQLCMSHHPSMNTPPAVLPTQLWDSIRLEPVVVNQPNRTTPLSANSTGVSSLTRHSTISRLSTGAFSNAASDWSLSFEKKQQFDAIFDSLDKQHAGSLSSAVLVPFFLSSRLNQETLATIWDLADIHNNAEFTKLEFAIAMFLIQKKNAGVELPDVIPNELLQSPALGLYPPNPLPQQQSAPQIAIPSRASKPSLQDMPHQVSAPAVNTQPTVPQVLPQNSNNGSLNDLLALNPSFSSPSPTKAQTVVQNNTNNSFSYDNNNGQATLQQQQPQQPPPLTHSSSGLKKFTPTSNFGQSIIKEEPEEQEQLRESSDTFSAQPPPVPKHASSPVKRTASTTLPQVPNFSVFSMPAGAATSAATGAAVGAAVGAAALGASAFSRSSNNAFKNQDLFADGEASAQLSNATTEMANLSNQVNSLSKQASITNDKKSRATQELKRVTEMKNSIQIKLNNLRSTHDQNVKQTEQLEAQVLQVNKENETLAQQLAVSEANYHAAESKLNELTTDLQESQTKNAELKEQITNLNSMTASLQSQLNEKQQQVKQERSMVDVNSKQLELNQVTVANLQKEIDGLGEKISVYLTKQKELNDYQKTVEEQHAQLQAKYQDLSNKDTDLTDREKQLEERNRQIEEQENLYHQHVSKLQEMFDDLSQRKASFEKADQELKERNIEYANNVRELSERQMNLAMGQLPEDAKDIIAKSASNTDTTTKEATSRGNVHEDTVSKFVETTVENSNLNVNRVKDDEEKTERTESDVFDRDVPTLGSQSDSENANTNNGTQSGNETANPNLTETLSDRFDGDLNEYGIPRSQSLTSSVANNAPQSVRDDVELPETLEERDTINNTANRDNTGNLSHIPGEWEATPATASTDVLSNETTEVIEDGSTTKRANSNEDGESVSSIQESPKISAQPKAKTINEEFPPIQELHIDESDSSSSDDDEFEDTREIPSATVKTLQTPYNAQPTSSLEIHTEQVIKYPAPGTSPSHNEGNSKKASTNSILPVKDEFDDEFAGLEQAAVEEDNGADSESEFENVANAGSMEQFETIDHKDLDDELQMNAFTGTLTSSSNPTIPKPQVQQQSTSDPAQVSNDEWDEIFAGFGNSKAEPTKVATPSIPQQPIPLKNDPIVDASLSKGPIVNRGVATTPKSLAVEELSGMGFTEEEAHNALEKCNWDLEAATNFLLDSA
binds | Hxk1 (protein, UniProt P04806 1-485) MVHLGPKKPQARKGSMADVPKELMDEIHQLEDMFTVDSETLRKVVKHFIDELNKGLTKKGGNIPMIPGWVMEFPTGKESGNYLAIDLGGTNLRVVLVKLSGNHTFDTTQSKYKLPHDMRTTKHQEELWSFIADSLKDFMVEQELLNTKDTLPLGFTFSYPASQNKINEGILQRWTKGFDIPNVEGHDVVPLLQNEISKRELPIEIVALINDTVGTLIASYYTDPETKMGVIFGTGVNGAFYDVVSDIEKLEGKLADDIPSNSPMAINCEYGSFDNEHLVLPRTKYDVAVDEQSPRPGQQAFEKMTSGYYLGELLRLVLLELNEKGLMLKDQDLSKLKQPYIMDTSYPARIEDDPFENLEDTDDIFQKDFGVKTTLPERKLIRRLCELIGTRAARLAVCGIAAICQKRGYKTGHIAADGSVYNKYPGFKEAAAKGLRDIYGWTGDASKDPITIVPAEDGSGAGAAVIAALSEKRIAEGKSLGIIGA
